From PubChem BioAssay AID1347131 (National Center for Advancing Translational Sciences (NCATS), 2019)
Hit rate of the full screen: of about 410,000 compounds, about 2,000 (0.49%) were called active. Inconclusive means that the source gave no clear call. Such entries were picked first, then a sample of the others. Calls come from the whole dose curve; tested in HEK293 reporter line. Potencies of inconclusive entries are doubtful fits and often do not repeat.

experiment: qHTS Assay for Foot and Mouth Disease Virus Antivirals: Primary Screen against the MLPCN compound library; conditions: FMDV antiviral cell-based qHTS; activity, negative = inhibition: at 57.9 µM (top of the series); note: nearly all actives have a fitted effect of over 55% in size
Potency is the fitted concentration of half-maximal effect.

| SMILES | Potency | activity, negative = inhibition |
| --- | --- | --- |
| CCn1nc(-c2ccccc2)c2nc3ccccc3nc21 | inactive |  |
| C=CCn1c(SCc2ccc(C(=O)Nc3nccs3)cc2)nnc1-c1ccc(C)c(Cl)c1 | inconclusive: 28.2 µM [inhibitor, partial curve, poor fit] |  |
| C=CCSc1nnc(Cn2c(=O)sc3ccccc32)n1C | inconclusive: 3.16 µM [inhibitor, full curve] |  |
| CCOC(=O)c1c(C)n(-c2ccccc2)c2ccc(OC(=O)c3ccccc3NC(=O)C(C)C)cc12 | inconclusive: 31.6 µM [inhibitor, partial curve, poor fit] |  |
| CCCN1C(=O)/C(=C\C=C2\N(CC)c3ccccc3C2(C)C)SC1=S | inconclusive: 12.6 µM [inhibitor, partial curve, poor fit] |  |
| CNC[C@H](CC1CCCCC1)NC[C@H](Cc1ccccc1)NCCC12CC3CC(CC(C3)C1)C2 | inconclusive: 31.6 µM [inhibitor, partial curve, poor fit] |  |
| CC(C)[C@@H](C(=O)N1CCN(Cc2ccc3c(c2)OCO3)CC1)n1nnc2ccccc2c1=O | inactive |  |
| Cc1ccccc1CN(CC(=O)Nc1cccc([N+](=O)[O-])c1)S(=O)(=O)c1ccc(Cl)cc1 | inconclusive: 39.8 µM [inhibitor, partial curve, poor fit] |  |
| Cc1ccc(S(=O)(=O)c2cn(C)c3cc(N4CCCCCC4)c(F)cc3c2=O)cc1 | inconclusive: 14.1 µM [inhibitor, partial curve] |  |
| Cn1c(=O)c(C(=O)CSc2nnc(Nc3ccccc3)s2)c(N)n(Cc2ccccc2)c1=O |  | inconclusive: -35.5% [inhibitor] |
| CCOC(=O)c1cccc(NC(=O)c2ccc3c(c2)nnn3C2CCCC2)c1 | inconclusive: 22.4 µM [inhibitor, single point] |  |
| O=C(COc1ccc(Cl)cc1)Nc1ncc([N+](=O)[O-])s1 | inconclusive: 10 µM [inhibitor, single point] |  |
| CCN1C(=O)[C@H]2[C@@H](c3ccc(-c4ccc(Cl)c(Cl)c4)c(OC)c3)N[C@@](C)(C(=O)OC)[C@H]2C1=O | inactive |  |
| Oc1ccc(-c2csc(Nc3ncccn3)n2)cc1O | inconclusive: 28.2 µM [inhibitor, single point] |  |
| Cc1ccc(C(=O)Nc2ncc([N+](=O)[O-])s2)cc1 | inconclusive: 8.91 µM [inhibitor, full curve, poor fit] |  |
| CN(Cc1ccc([N+](=O)[O-])cc1)c1ccccc1 | inconclusive: 14.1 µM [inhibitor, partial curve, poor fit] |  |
| CCCCN1CC(c2nc3ccccc3n2CCCCOc2ccc(C)cc2C)CC1=O (centres undefined) | inconclusive: 39.8 µM [inhibitor, partial curve, poor fit] |  |
| CC(=O)c1ccc(Nc2nc(-c3sc(C)nc3C)cs2)cc1 | inconclusive: 25.1 µM [inhibitor, partial curve, poor fit] |  |
| CCOC(=O)[C@]12Cc3c(cc(OC)c(OC)c3OC)[C@H]1N(CCC(=O)OC)C(=O)c1cc(OC)ccc12 | inconclusive: 28.2 µM [inhibitor, partial curve, poor fit] |  |
| COc1cc2c(cc1O)C(SC)=NC(C)(C)C2 | inconclusive: 20 µM [inhibitor, partial curve, poor fit] |  |

As a short view, part of the list above:

| SMILES | Potency | activity, negative = inhibition |
| --- | --- | --- |
| CC(=O)c1ccc(Nc2nc(-c3sc(C)nc3C)cs2)cc1 | inconclusive: 25.1 µM [inhibitor, partial curve, poor fit] |  |
| CCOC(=O)[C@]12Cc3c(cc(OC)c(OC)c3OC)[C@H]1N(CCC(=O)OC)C(=O)c1cc(OC)ccc12 | inconclusive: 28.2 µM [inhibitor, partial curve, poor fit] |  |

Next part:

| SMILES | Potency | activity, negative = inhibition |
| --- | --- | --- |
| CC[C@@]12C(=O)N(c3ccc(C)cc3)C(=O)N1[C@H](c1cccc(C)c1)[C@@H]1C(=O)N(Cc3ccccc3)C(=O)[C@@H]12 | inconclusive: 3.98 µM [inhibitor, full curve] |  |
| COc1ccc(S(=O)(=O)n2nc(-n3c(C)ccc3C)c3c(F)cccc32)cc1OC | inconclusive: 17.8 µM [inhibitor, partial curve, poor fit] |  |
| CCN(CCNC(=O)Cn1cc2c(n1)CCCC2)c1ccccc1 | inconclusive: 12.6 µM [inhibitor, partial curve, poor fit] |  |
| O=C(c1c(F)c(F)c(F)c(F)c1F)N1CCN(Cc2ccc3c(c2)OCO3)CC1 |  | inconclusive: -109% [inhibitor] |
| Cn1c(=O)c2c(nc(-c3ccc(N(CCCl)CCCl)cc3)n2C)n(C)c1=O | inconclusive: 31.6 µM [inhibitor, partial curve, poor fit] |  |
| O=C(COc1ccc(Br)cc1CNC1CCCCC1)NCCc1ccccc1 | inconclusive: 15.8 µM [inhibitor, partial curve] |  |
| Cc1ccc(Cl)cc1NC(=O)N(Cc1ccc2c(c1)OCO2)C1CCN(Cc2ccccc2)CC1 | inconclusive: 12.6 µM [inhibitor, partial curve] |  |
| CC(C)=CCN1CCN(Cc2cc(C(C)C)n[nH]2)CC1CCO (centres undefined) | inconclusive: 2.51 µM [inhibitor, full curve] |  |
| CC(C)(C)c1ccc(C(=O)/C=C2\NC(=O)CS2)cc1 | inconclusive: 14.1 µM [inhibitor, single point] |  |
| O=C(COc1ccc(Oc2ccccc2)cc1)NCc1cn2ccccc2n1 | inactive |  |
| CC(C)(C)C(=O)Nc1ccc(N=Nc2ccccc2)cc1 | inconclusive: 17.8 µM [inhibitor, partial curve, poor fit] |  |
| Cc1ccc(-c2nnn(CC(=O)N(c3ccc(F)cc3)C(C(=O)NC3CCCC3)c3ccncc3)n2)o1 (centres undefined) | inconclusive: 8.91 µM [inhibitor, full curve] |  |
| O=C(Nc1ccc(N2CCOCC2)cc1)Nc1ccc(Cl)c(Cl)c1 | inconclusive: 39.8 µM [inhibitor, single point] |  |
| Cc1ccccc1NC(=O)C(=Cc1ccc(C(=O)O)cc1)C(=O)Nc1ccccc1C | inconclusive: 5.62 µM [inhibitor, partial curve, poor fit] |  |
| COc1cccc(OC)c1OCCOc1ccc(C(=O)c2ccccc2)cc1 | inconclusive: 31.6 µM [inhibitor, partial curve, poor fit] |  |
| O=C(COc1ccc(Cl)cc1Cl)Nc1ccccn1 | inconclusive: 1.58 µM [inhibitor, full curve, poor fit] |  |
| CCOC(=O)CC1(NC(=O)c2cc(COc3cccc(OC)c3)on2)CCCCC1 | inconclusive: 2.24 µM [inhibitor, partial curve, poor fit] |  |
| Cc1ncsc1CCC(=O)N1CCCC(c2nc(-c3ccncc3)ncc2-c2ccccc2)C1 (centres undefined) | inactive |  |
| Cc1ccc(S(=O)(=O)c2c(C)nn(C(C)(C)C)c2OC(=O)C(C)(C)C)cc1 | inactive |  |
| CC(=O)c1sc(NC(=O)C2CC(=O)N(Cc3ccccc3)C2)nc1-c1ccccc1 (centres undefined) | inactive |  |

| SMILES | Potency | activity, negative = inhibition |
| --- | --- | --- |
| Cc1cc(C)cc(OCC(=O)Nc2cccc(-c3nnc(-c4ccco4)o3)c2)c1 | inconclusive: 20 µM [inhibitor, partial curve, poor fit] |  |
| c1ccc2c(N3CCCC3)nc(-c3ccncc3)nc2c1 | inconclusive: 14.1 µM [inhibitor, partial curve, poor fit] |  |
| Cc1ccc(CCNC(=O)CCn2nc(-c3ccc(C)cc3)ccc2=O)cc1 | inconclusive: 7.94 µM [inhibitor, partial curve] |  |
| CCc1c(CN2CCN(c3ccccc3F)CC2)csc1C | inconclusive: 10 µM [inhibitor, partial curve] |  |
| Cc1cc(C)cc(Oc2cc(NC(=O)c3cn(C)nc3C)cc([N+](=O)[O-])c2)c1 | inconclusive: 11.2 µM [inhibitor, partial curve] |  |
| CCCn1c(=O)c2[nH]c(-c3ccc(S(=O)(=O)O)cc3)nc2n(CCC)c1=O | inconclusive: 5.01 µM [inhibitor, partial curve] |  |
| CCC(C)NC(=O)c1cc(-c2ccccc2O)on1 (centres undefined) | inactive |  |
| Cc1ccccc1C(=O)N=c1ccn(-c2nc3ccccc3nc2NS(=O)(=O)c2ccc(F)cc2)cc1 | inconclusive: 2.82 µM [inhibitor, partial curve] |  |
| CC(=O)N(C)c1ccc(C=C2C=Cc3ccccc32)cc1 | inconclusive: 22.4 µM [inhibitor, single point] |  |
| O=C(/C=C/c1ccco1)Nc1nc(-c2ccc(F)c(F)c2)cs1 | inconclusive: 35.5 µM [inhibitor, partial curve, poor fit] |  |
| CS(=O)(=O)c1ccc(C(=O)OCC(=O)NCc2cccs2)cc1[N+](=O)[O-] | active: 25.1 µM |  |
| COc1ccc(/C=N/NC(=O)c2cccnc2)cc1CSc1nc2ccccc2s1 | inconclusive: 35.5 µM [inhibitor, single point] |  |
| Cc1ccc2nc(-c3cc(-c4ccccc4)no3)cn2c1 | inconclusive: 12.6 µM [inhibitor, single point] |  |
| c1ccc(-n2ncc3c(N4CCCCC4)ncnc32)cc1 | inconclusive: 14.1 µM [inhibitor, partial curve, poor fit] |  |
| CCOc1ccc(/C=N/NC(=O)c2[nH]ncc2Br)c(O)c1 | inconclusive: 15.8 µM [inhibitor, single point] |  |
| O=[N+]([O-])c1ccc(COc2ccc(-c3[nH]ncc3-c3ccc(Cl)cc3)c(O)c2)cc1 | inconclusive: 31.6 µM [inhibitor, single point] |  |
| O=[N+]([O-])c1cccnc1S(=O)(=O)c1ccccc1 | inconclusive: 22.4 µM [inhibitor, partial curve, poor fit] |  |
| CCOC(=O)[C@]12Cc3cc(Cl)ccc3[C@H]1N(C1CCCCC1)C(=O)c1cc(OC)ccc12 | inconclusive: 2.24 µM [inhibitor, full curve, poor fit] |  |
| COC(=O)c1cc(=O)n(-c2ccc(F)cc2)c(=Nc2ccc(F)cc2)s1 | inconclusive: 22.4 µM [inhibitor, partial curve, poor fit] |  |
